The values below are quoted from earlier work in patent publication US20200309767A1, “HIGH-THROUGHPUT IMAGING-BASED METHODS FOR PREDICTING CELL-TYPE-SPECIFIC TOXICITY OF XENOBIOTICS WITH DIVERSE CHEMICAL STRUCTURES” (priority 2015, published 2020).

Data set [1] relates to human proximal tubular cells (PTCs). The following applies: known toxicity flag 1/0; cited from earlier work.
The test system of another data set is human kidney. The following applies: in vivo; cited from earlier work.

On to `O=C(O)c1cn(C2CC2)c2cc(N3CCNCC3)c(F)cc2c1=O` [Ciprofloxacin], for which the PTC-toxic in data set [1] is given as 0.
Regarding `NS(=O)(=O)c1cc(C(=O)O)c(NCc2ccco2)cc1Cl` [Furosemide], in the data set with human kidney, the Nephrotoxic is 1.
